Laboratory results reported in ChEMBL document CHEMBL4689842, “EUbOPEN Chemogenomics Library wave 1” (2021).
Only a part of the results on these compounds is given; other tests are left out. Not every entry of the source has a single result; some have several. Only these are listed. The source may hold further records. Values that stand side by side differ for a reason that is not stated; dose, time, organism, isomer or construct need not be as stated for each record.

Assays:
U2OS = test: Multiplex assay against U2OS; assay type: toxicity, cell-based; conditions: human
Fibroblast = test: Multiplex assay against human fibroblast; assay type: toxicity, cell-based

Question: What does the source list for `CC(=O)N1CCc2ccc(N(C(=O)/C=C/c3cccc(C#N)c3)C3CCN(CCC4CCCC4)CC3)cc21`?
Answer: Population Membrane Permeable-Phenotype (%) (U2OS; 0 h, 1 µM): 5% and 2%; Population Membrane Permeable-Phenotype (%) (U2OS; 0 h, 10 µM): 5% and 2%; Population Mitochondria Different-Phenotype (%) (U2OS; 0 h, 10 µM): 22% and 8%; Total Cell Count (U2OS; 0 h, 10 µM): 310 and 53; Population Membrane Permeable-Phenotype (%) (U2OS; 12 h, 1 µM): 6% and 2%; Population Mitochondria Different-Phenotype (%) (U2OS; 12 h, 1 µM): 49% and 18%; Population Tubulin-Different-Phenotype (%) (U2OS; 12 h, 1 µM): 61% and 13%; Population Membrane Permeable-Phenotype (%) (U2OS; 12 h, 10 µM): 24% and 63%; Total Cell Count (U2OS; 12 h, 10 µM): 54 and 269; Population Membrane Permeable-Phenotype (%) (U2OS; 24 h, 1 µM): 5% and 2%; Population Mitochondria Different-Phenotype (%) (U2OS; 24 h, 1 µM): 50% and 7%; Population Tubulin-Different-Phenotype (%) (U2OS; 24 h, 1 µM): 43% and 20%; Population Membrane Permeable-Phenotype (%) (U2OS; 24 h, 10 µM): 22% and 88%; Total Cell Count (U2OS; 24 h, 10 µM): 60 and 302; Population Pyknosed Nuclei (%) (U2OS; 48 h, 1 µM): 8% and 19%; Population Membrane Permeable-Phenotype (%) (U2OS; 48 h, 10 µM): 98% and 47%; Population Mitotic Cells (%) (U2OS; 48 h, 10 µM): 6% and 35%; Total Cell Count (U2OS; 48 h, 10 µM): 383 and 73; Population Healthy Nuclei (%) (Fibroblast; 0 h, 1 µM): 34% and 72%; Population Pyknosed Nuclei (%) (Fibroblast; 0 h, 1 µM): 33% and 9%; Total Cell Count (Fibroblast; 0 h, 1 µM): 189 and 90; Population Fragmented Nuclei (%) (Fibroblast; 0 h, 10 µM): 42% and 20%; Population Healthy Nuclei (%) (Fibroblast; 0 h, 10 µM): 20% and 60%; Population Membrane Permeable-Phenotype (%) (Fibroblast; 0 h, 10 µM): 5% and 2%; Population Tubulin-Different-Phenotype (%) (Fibroblast; 0 h, 10 µM): 11% and 27%; Population Pyknosed Nuclei (%) (Fibroblast; 12 h, 1 µM): 37% and 12%; Population Tubulin-Different-Phenotype (%) (Fibroblast; 12 h, 1 µM): 75% and 13%; Population Fragmented Nuclei (%) (Fibroblast; 12 h, 10 µM): 45% and 6%; Population Healthy Nuclei (%) (Fibroblast; 12 h, 10 µM): 25% and 73%; Population Hoechst High Intensity Objects (%) (Fibroblast; 12 h, 10 µM): 16% and 6%; Population Fragmented Nuclei (%) (Fibroblast; 24 h, 1 µM): 27% and 9%; Population Membrane Permeable-Phenotype (%) (Fibroblast; 24 h, 1 µM): 16% and 2%; Population Mitochondria Different-Phenotype (%) (Fibroblast; 24 h, 1 µM): 29% and 7%; Population Tubulin-Different-Phenotype (%) (Fibroblast; 24 h, 1 µM): 85% and 20%; Population Fragmented Nuclei (%) (Fibroblast; 24 h, 10 µM): 44% and 12%; Population Hoechst High Intensity Objects (%) (Fibroblast; 24 h, 10 µM): 23% and 4%; Population Mitochondria Different-Phenotype (%) (Fibroblast; 48 h, 1 µM): 12% and 2%; Total Cell Count (Fibroblast; 48 h, 1 µM): 236 and 117; Population Hoechst High Intensity Objects (%) (Fibroblast; 48 h, 10 µM): 16% and 36%; Population Membrane Permeable-Phenotype (%) (Fibroblast; 48 h, 10 µM): 3% and 10%; Population Mitochondria Different-Phenotype (%) (Fibroblast; 48 h, 10 µM): 35% and 75%; Total Cell Count (Fibroblast; 48 h, 10 µM): 200 and 84
